Here are results for 1 compound from patent US11046680B1, “Heteroaryl-substituted triazoles as APJ receptor agonists” (priority 2016, dated 2021).

Sequences of proteins named here, by UniProt entry; tags and fusion partners are left off.
UniProt P35414, whole entry: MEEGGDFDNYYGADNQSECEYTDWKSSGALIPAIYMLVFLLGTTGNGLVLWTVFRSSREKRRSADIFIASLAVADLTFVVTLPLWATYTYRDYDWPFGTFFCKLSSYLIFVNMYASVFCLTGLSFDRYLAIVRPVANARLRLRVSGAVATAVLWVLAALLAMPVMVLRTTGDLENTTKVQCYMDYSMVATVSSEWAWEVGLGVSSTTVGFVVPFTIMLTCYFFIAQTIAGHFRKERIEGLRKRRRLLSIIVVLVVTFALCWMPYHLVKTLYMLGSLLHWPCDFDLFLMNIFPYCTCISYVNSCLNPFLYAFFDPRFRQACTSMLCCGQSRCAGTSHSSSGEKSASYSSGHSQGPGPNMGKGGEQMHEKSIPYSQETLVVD

Structures were worked out from names or drawings and are uncertain.

The assay deals with human APJ receptor (Homo sapiens (Human), UniProt P35414). To be noted: read-out: Activity hAPJ SPA EC50 IP; [35S]GTPγS binding, CHO membranes expressing human APJ receptor.

As for `COc1cccc(OC)c1-n1c(NS(=O)(=O)C2CC(O)CN(c3ncc(F)cn3)C2)nnc1-c1nc(C)cs1` (stereo not shown), the concentration for a half-maximal effect (EC50) was determined as 2.5 nM.
